Assay results reported in PubChem BioAssay AID1671190 (National Center for Advancing Translational Sciences (NCATS), 2021).
The whole screen tested about 580,000 compounds, of which about 6,100 (1.1%) were called active. This list was built around the results that the source calls inconclusive (neither active nor inactive); the mix of calls is not that of the screen. The call rests on the fitted dose curve; in most records, active means well fitted inhibition curve with a large enough effect; inconclusive means small, poorly fitted or top-dose-only effect, or another doubt; inactive means no such curve, though single readings can be large or run the other way. Potencies beside an inconclusive call are fits to weak or partial responses and may not hold up.

Sequences of proteins named here, by UniProt entry; tags and fusion partners are left off. A change or cut given only in a name is not applied to a line headed by its entry.
UniProt P18054: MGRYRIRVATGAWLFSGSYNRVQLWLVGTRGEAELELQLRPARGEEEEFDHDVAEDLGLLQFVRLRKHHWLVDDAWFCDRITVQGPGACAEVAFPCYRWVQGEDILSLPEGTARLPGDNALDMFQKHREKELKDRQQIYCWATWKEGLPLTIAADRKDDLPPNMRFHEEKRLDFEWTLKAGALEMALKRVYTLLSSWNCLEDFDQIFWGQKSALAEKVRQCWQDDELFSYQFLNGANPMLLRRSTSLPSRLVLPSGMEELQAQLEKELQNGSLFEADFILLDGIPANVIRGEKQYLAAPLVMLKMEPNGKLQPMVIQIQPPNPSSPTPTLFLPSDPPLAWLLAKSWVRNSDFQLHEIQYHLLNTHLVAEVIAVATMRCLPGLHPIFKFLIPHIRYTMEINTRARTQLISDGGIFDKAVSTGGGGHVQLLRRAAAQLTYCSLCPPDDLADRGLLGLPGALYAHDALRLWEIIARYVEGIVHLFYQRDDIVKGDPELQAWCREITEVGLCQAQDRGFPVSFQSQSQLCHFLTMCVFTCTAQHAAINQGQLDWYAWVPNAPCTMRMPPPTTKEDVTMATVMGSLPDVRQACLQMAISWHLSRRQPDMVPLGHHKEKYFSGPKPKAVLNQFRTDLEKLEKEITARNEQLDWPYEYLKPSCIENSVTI

Target: Polyunsaturated fatty acid lipoxygenase ALOX12 (Homo sapiens) (UniProt P18054)
Assay: Primary qHTS assay for inhibitors of human arachidonate 12S-lipoxygenase (ALOX12): Round 2
Conditions: purified 12hLO, xylenol orange hydroperoxide absorbance; activity change, negative = inhibition: at 108 µM (top of the series) unless noted
In short: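 Purified human 12hLO (150 nM final) in 25 mM Hepes, 0.01% Triton X-100, pH 7.0 was preincubated 15 min at room temperature with compound. Then 40 uM arachidonic acid was added, 30 min. Hydroperoxide was read by Fe-XO absorbance ratio 573/405 nm.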
On the % scale 0 is the no-effect control and ±100 the full control effect; potency means the concentration at half of the fitted maximal effect.

Compound	activity change, negative = inhibition	Potency
COc1ccc(CCN(C)Cc2nc(-c3cnccn3)no2)cc1OC	inactive: 1.96%	–
Cc1ccc(S(=O)(=O)/C(C#N)=C/c2c(N3CCC(C(N)=O)CC3)nc3ccccn3c2=O)cc1	–	inconclusive: 44.7 µM [inhibitor, partial curve]
CCc1ccc2c(CN(C)CC(=O)N(C)C)cc(=O)oc2c1	–	inconclusive: 70.8 µM [inhibitor, partial curve, poor fit]
COc1cc(/C=N/c2oc(C)c(C)c2C#N)cc(Br)c1O	–	inconclusive: 25.1 µM [inhibitor, partial curve, poor fit]
O=C(O)CCC(=O)N1CCN(c2nc(-c3ccccc3Cl)c3cc(Br)ccc3n2)CC1	–	inconclusive: 112 µM [inhibitor, single point]
COc1ccccc1N1CCN(CC(=O)Nc2ccc(C)cc2Cl)CC1	inactive: 9.4%	–
Cc1ccccc1-c1cc(=O)c2cc(NC(=O)c3ccccc3F)ccc2o1	inactive: 12.3%	–
COc1nccnc1NS(=O)(=O)c1ccc(NC(=S)NC(=O)c2cccnc2)cc1	inactive: -24.4%	–
C=CCn1c(-c2cccc(S(=O)(=O)N3CCOCC3)c2)n[nH]c1=S	–	inconclusive: 39.8 µM [inhibitor, partial curve, poor fit]
O=C(C=Cc1ccccn1)c1ccccc1O	–	inconclusive: 56.2 µM [inhibitor, partial curve, poor fit]
CC(C)Oc1ccccc1OCCCOc1cccc2cccnc12	–	inconclusive: 31.6 µM [inhibitor, single point]
O=C(CC1N=C2c3ccccc3N=C(SCc3ccc(Cl)cc3)N2C1=O)NCCc1ccccc1 (stereo not given)	inactive: 1.86%	–
Clc1ccc(Nc2nc(-c3cccnc3)cs2)cc1	–	inconclusive: 31.6 µM [inhibitor, partial curve]
N#Cc1c(NC(=O)CNc2ccccc2C(=O)NCC(F)(F)F)sc2c1CCCCC2	inactive: -26.8%	–
Cc1cnc(-c2ccccc2)n1C1CCCN(C(=O)COc2ccc(F)cc2)C1 (stereo not given)	inactive: 60.2%	–
CCOC(=O)C1CCN(c2nc(C)nc3c2oc2ccccc23)CC1	–	inconclusive: 79.4 µM [inhibitor, partial curve, poor fit]
c1ccc(Nc2nc(NCc3ccc4c(c3)OCO4)nc3nccnc23)cc1	–	inconclusive: 112 µM [inhibitor, single point]
CCC(=O)Nc1sc2c(c1C#N)CCC(CC)C2 (stereo not given)	–	inconclusive: 31.6 µM [inhibitor, partial curve]
O=C1Cc2cc(C(=O)CSc3nnc(-c4ccc(O)cc4)o3)c(Cl)cc2N1	–	inconclusive: 39.8 µM [inhibitor, partial curve, poor fit]
COc1cccc(/C=C/c2ccc3cccc(O)c3n2)c1	inactive: -9.49%	–
O=C(NC(=S)Nc1ccccn1)c1ccccc1	–	inconclusive: 44.7 µM [inhibitor, partial curve, poor fit]
CCc1ccc(-c2csc(/C(C#N)=C/Nc3cccc(C)c3C)n2)cc1	–	inconclusive: 79.4 µM [inhibitor, partial curve, poor fit]
NCC1CCN(CCc2ccc(F)cc2)CC1	–	inconclusive: 0.316 µM [inhibitor, full curve, poor fit]

Some of these compounds in order of molar mass, largest number first.
Compound	activity change, negative = inhibition	Potency
O=C(CC1N=C2c3ccccc3N=C(SCc3ccc(Cl)cc3)N2C1=O)NCCc1ccccc1 (stereo not given)	inactive: 1.86%	–
N#Cc1c(NC(=O)CNc2ccccc2C(=O)NCC(F)(F)F)sc2c1CCCCC2	inactive: -26.8%	–
Cc1cnc(-c2ccccc2)n1C1CCCN(C(=O)COc2ccc(F)cc2)C1 (stereo not given)	inactive: 60.2%	–
COc1ccccc1N1CCN(CC(=O)Nc2ccc(C)cc2Cl)CC1	inactive: 9.4%	–
c1ccc(Nc2nc(NCc3ccc4c(c3)OCO4)nc3nccnc23)cc1	–	inconclusive: 112 µM [inhibitor, single point]
C=CCn1c(-c2cccc(S(=O)(=O)N3CCOCC3)c2)n[nH]c1=S	–	inconclusive: 39.8 µM [inhibitor, partial curve, poor fit]
COc1ccc(CCN(C)Cc2nc(-c3cnccn3)no2)cc1OC	inactive: 1.96%	–
CCc1ccc2c(CN(C)CC(=O)N(C)C)cc(=O)oc2c1	–	inconclusive: 70.8 µM [inhibitor, partial curve, poor fit]
O=C(NC(=S)Nc1ccccn1)c1ccccc1	–	inconclusive: 44.7 µM [inhibitor, partial curve, poor fit]
O=C(C=Cc1ccccn1)c1ccccc1O	–	inconclusive: 56.2 µM [inhibitor, partial curve, poor fit]

Remaining list, next part.

Compound	activity change, negative = inhibition	Potency
Cc1cccc(OCC(=O)Nc2cc(-c3nn(C)c(=O)c4ccccc34)ccc2N2CCCCC2)c1	–	inconclusive: 50.1 µM [inhibitor, partial curve, poor fit]
COC(=O)C1=C(C)N(Cc2ccccc2C(F)(F)F)C(=NCc2ccc(OC)cc2)NC1CCc1ccccc1 (stereo not given)	–	inconclusive: 100 µM [inhibitor, single point]
Cc1cc(Cl)ccc1N(CC(=O)NCCN1CCOCC1)S(=O)(=O)c1ccccc1	inactive: 10.4%	–
C(#Cc1ccccc1)CN1CCOCC1	–	inconclusive: 10 µM [inhibitor, full curve]
COC(=O)c1cc2c(c3c4cc(OC)ccc4n(S(=O)(=O)c4ccc(F)cc4)c13)C(=O)N(CC(C)C)C2	–	inconclusive: 44.7 µM [inhibitor, partial curve, poor fit]
COC(=O)[C@H](Cc1ccccc1)NC1CCN(c2cccc(NC(=O)CC3CCCC3)c2)CC1	inactive: 6.26%	–
Cc1c(C)c(C)c(S(=O)(=O)Nc2ccc(F)c(C(=O)O)c2)c(C)c1C	–	inconclusive: 39.8 µM [inhibitor, single point]
COc1cc(CC(=O)OCc2ccc(Cl)cc2Cl)cc(OC)c1OC	inactive: -25.9%	–
N#Cc1c(SCC(=O)Nc2cccc(F)c2)sc2c(O)cc(=O)[nH]c12	–	inconclusive: 39.8 µM [inhibitor, partial curve, poor fit]
O=C(O)COc1c(-c2ccco2)oc2ccccc2c1=O	inactive: -15.1%	–
CCN(CCNC(=O)CC1CCN(c2ccnc(OC)n2)CC1)Cc1ccccc1	inactive: 37.1%	–
N#Cc1c(-c2cccs2)nc(SCC(=O)c2cccs2)[nH]c1=O	–	active: 10 µM
CCc1noc(C)c1C(=O)N1CCCSC1=Nc1ccccc1C(C)C	–	inconclusive: 35.5 µM [inhibitor, partial curve, poor fit]
Cc1cc(=O)c(C(=O)N2CCN(S(=O)(=O)c3ccc4c(c3)CCC4)CC2)nn1-c1ccccc1F	inactive: 14.9%	–
CCN(C(=O)COC(=O)c1cc(-c2ccc(C)o2)nc2ccccc12)C1CCS(=O)(=O)C1 (stereo not given)	–	inconclusive: 12.6 µM [inhibitor, partial curve, poor fit]
COc1ccccc1NC(=S)NC1CCCCCCCCCCC1	–	inconclusive: 15.8 µM [inhibitor, full curve, poor fit]
Cc1n[nH]c(C)c1/C=C/C(=O)c1ccc(F)c(F)c1	inactive: 44.8%	–
COc1ccc(CCC(=O)Nc2ccc(Cl)c(S(=O)(=O)N3CCCC3)c2)cc1	inactive: -7.68%	–
O=C(OCc1nnc(-c2ccccc2)o1)c1ccc(Br)o1	–	inactive
Cc1ccc(/C=C/C(=O)c2c(C)nc3ccccc3c2-c2ccccc2)cc1	–	inconclusive: 126 µM [inhibitor, single point]
CC(NC(=O)c1cccc(S(=O)(=O)N2CCN(Cc3ccccc3)CC2)c1)c1ccccc1Cl (stereo not given)	inactive: 173%	–
NC(=O)c1ccccc1NCC(=O)c1ccc(Cl)cc1	–	inconclusive: 89.1 µM [inhibitor, partial curve, poor fit]
